Results are given in words; binding and its absence hold for the method and conditions named. Binding seen in cells or lysates may run through a third protein. Here binding means that the protein was enriched with, or labelled near, the bait; the list need not be complete.
Target: Flag-TRF2 (telomeric repeat-binding factor 2 with Flag tag) (human) (UniProt Q15554)
Experiment: affinity purification with mass spectrometry; Flag-TRF2 transfected in HEK293T, 48 h; lysate in 50 mM Tris-HCl pH 7.4, 150 mM NaCl, 1 mM EDTA, 1 mM DTT, 0.3% NP-40; captured on Flag M2 beads, eluted with Flag peptide, SDS-PAGE, silver stain, bands analysed by MS

Amino acid sequences for entries named in this document (tags omitted).
UniProt Q15554: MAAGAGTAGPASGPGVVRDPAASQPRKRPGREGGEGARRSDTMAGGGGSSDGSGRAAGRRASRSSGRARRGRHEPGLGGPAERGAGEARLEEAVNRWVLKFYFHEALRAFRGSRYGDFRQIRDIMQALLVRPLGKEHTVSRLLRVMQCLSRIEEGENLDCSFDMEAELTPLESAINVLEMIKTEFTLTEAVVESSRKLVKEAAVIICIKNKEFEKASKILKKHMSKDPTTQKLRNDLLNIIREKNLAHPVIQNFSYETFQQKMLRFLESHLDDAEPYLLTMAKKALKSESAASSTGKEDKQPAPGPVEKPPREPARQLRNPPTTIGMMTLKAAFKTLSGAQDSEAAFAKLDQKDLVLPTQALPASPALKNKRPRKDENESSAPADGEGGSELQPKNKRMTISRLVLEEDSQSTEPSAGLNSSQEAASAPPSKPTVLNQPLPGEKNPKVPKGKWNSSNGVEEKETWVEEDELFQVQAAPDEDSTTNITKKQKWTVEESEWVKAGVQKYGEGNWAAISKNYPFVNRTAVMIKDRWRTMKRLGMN
UniProt Q14978: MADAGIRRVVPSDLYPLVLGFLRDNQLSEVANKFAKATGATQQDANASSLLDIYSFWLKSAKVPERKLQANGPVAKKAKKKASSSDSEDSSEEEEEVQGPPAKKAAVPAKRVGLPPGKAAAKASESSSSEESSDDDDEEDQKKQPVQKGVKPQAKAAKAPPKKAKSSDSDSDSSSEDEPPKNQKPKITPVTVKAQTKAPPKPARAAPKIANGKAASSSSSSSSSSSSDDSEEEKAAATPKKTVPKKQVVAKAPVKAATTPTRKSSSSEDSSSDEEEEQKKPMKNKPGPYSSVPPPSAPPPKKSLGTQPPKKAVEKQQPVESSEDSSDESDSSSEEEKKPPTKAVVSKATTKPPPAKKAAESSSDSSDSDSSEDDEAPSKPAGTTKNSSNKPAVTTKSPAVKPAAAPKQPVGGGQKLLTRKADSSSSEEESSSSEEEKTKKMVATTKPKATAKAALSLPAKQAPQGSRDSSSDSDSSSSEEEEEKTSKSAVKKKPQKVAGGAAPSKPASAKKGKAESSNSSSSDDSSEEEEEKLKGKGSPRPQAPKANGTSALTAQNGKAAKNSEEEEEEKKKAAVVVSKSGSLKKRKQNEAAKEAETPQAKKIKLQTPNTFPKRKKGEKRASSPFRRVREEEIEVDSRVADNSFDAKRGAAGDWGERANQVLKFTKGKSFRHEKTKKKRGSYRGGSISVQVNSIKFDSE

binding: binds
Substance: Nucleolar and coiled-body phosphoprotein 1 (NOLC1), endogenous (from UniProt Q14978 1-699)

Reference: article PMC5938709
